# Data as given in PubChem BioAssay AID1259260 (Sanger Institute, 2017)
# Purpose: 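Essential and drug-synergistic kinases in a colorectal cancer cell line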 (primary screen)
# System: human NCI-H716 colorectal cancer cells
# Reagents: siRNA pool against human genes
# Challenge: anchor drugs BYL719 (alpelisib) 1 µM, cetuximab 5 µg/ml or trametinib 10 nM, each at a dose chosen to harm viability only mildly; DMSO vehicle for the knock-down-alone arm
# Read-out: 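Replicate-averaged viability relative to a non-targeting pool, a robust z-score for knock-down alone, and a synergy score per anchor drug versus each agent alone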
# Reading the numbers: viability robust z-score, siRNA alone: higher = more surviving cells; below -3 called essential
# Rule for the call: 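a knock-down counts as essential if its no-drug robust z-score is lower than -3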
# Calls: active = essential (knock-down alone lowers viability); inactive = no essential effect
# Here is one part, drawn at random, of 794 reagents. 13 of them (1.6%) count as active. 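Calls reflect only knock-down without drug; synergy above 0.15 was grouped apart and does not change the call.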 Not all columns of the deposit are shown. Not stated in the record: the amount of reagent, the time to read-out.
target gene,"viability robust z-score, siRNA alone",call
FCSK,0.602,inactive
PRKD3,-0.279,inactive
ITK,0.602,inactive
CAD,-0.783,inactive
NR2F2,0.103,inactive
SCYL1,0.602,inactive
CDKN1A,0.269,inactive
SOS2,0.602,inactive
WNK3,0.602,inactive
PANK1,0.602,inactive
PKIB,0.602,inactive
ROCK2,-0.828,inactive
PTK7,0.602,inactive
TESK2,0.602,inactive
MAPK9,0.602,inactive
MAP2K6,0.602,inactive
CDK16,-1.36,inactive
BRSK2,0.602,inactive
ETNK1,-0.438,inactive
ERN1,0.602,inactive
ULK4,0.116,inactive
PI4KA,0.147,inactive
TGFBR2,0.602,inactive
SRMS,-0.48,inactive
MAGI3,-0.38,inactive
CDKN2C,0.602,inactive
TGFBR1,-0.422,inactive
PSTK,0.602,inactive
CRKL,0.602,inactive
PMVK,0.00334,inactive
MAPK11,0.102,inactive
DLG2,0.602,inactive
BRDT,0.602,inactive
FASTK,0.602,inactive

3 successive reagents from above, for reference:
target gene,"viability robust z-score, siRNA alone",call
ITK,0.602,inactive
CAD,-0.783,inactive
NR2F2,0.103,inactive
